The values below come from the supplement of paper PMC10338343.

In this experiment the test system is EfPiwi piRISC loaded with L1MC piRNA (26 nt). The experiment can be described thus: pre-steady-state target cleavage rate (min^-1); guide: L1MC piRNA 5'p-UAACUAAAUACUAUGCAAGCUGUAGG; MIWI and MILI are mouse PIWI proteins and EfPiwi is from a freshwater sponge; tags in brackets are library labels; higher = faster piRNA-guided slicing of the target. Summed up:
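The pre-steady-state cleavage rate was obtained by Cleave-'n-Seq with a burst-and-steady-state fit. A transcribed, DNA-blocked target RNA library (0.1 nM) was mixed with 1 nM active affinity-purified piRISC carrying one synthetic guide, with or without 500 nM GTSF1 partner protein, in HEPES–potassium acetate buffer at 33 °C for 0–8 or 0–960 min. Uncleaved targets were sequenced and normalised to depth and to weakly complementary targets, with three trials pooled and k3 capped at 0.0001 min^-1.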

Setting [1] is: auxiliary factor: 500 nM Ephydatia muelleri Gtsf1.
Setting [2] is: auxiliary factor: none (no Gtsf1).

± gives the standard deviation. This is one part of the list. Many of these values have a large error.

As to UCCUGGUACAGCUUGGUUAGUAUUUAGUUA, the “pre-steady-state target cleavage rate” value by setting is: under setting [1], 0.00478 ± 0.0032; under setting [2], 0.000494 ± 0.033.

With UCCUGCUACACCUUGCAUAGUAUUUAGUAA, the “pre-steady-state target cleavage rate” value under setting [1] was found to be 0.00559 ± 0.0032 and the “pre-steady-state target cleavage rate” value under setting [2] is 0.000507 ± 0.011.

UCCUGGAUGUCCUUGCAUAGUACUUAGUUA: the “pre-steady-state target cleavage rate” value reads like this: under setting [1], 0.00586 ± 0.0027; under setting [2], 0.000579 ± 0.011.

For UCCUCCUACAGCUUGCAUUGUUUUUAGUUA, the “pre-steady-state target cleavage rate” value under setting [1] amounted to 0.00277 ± 0.0025 and the “pre-steady-state target cleavage rate” value under setting [2] worked out at 0.000588 ± 0.0075.

Consider UCCUGGUACAGCUUGCGUAGUAUUUAGUUA, for which the “pre-steady-state target cleavage rate” value by setting is: under setting [1], 0.0273 ± 0.0095; under setting [2], 0.000576 ± 0.027.

Turning to UCCUGGUACAGCUAGCUUAGUAUUUAGUUA, the “pre-steady-state target cleavage rate” value came to 0.00544 ± 0.0027 under setting [1] and 0.00112 ± 0.0078 under setting [2].

For UCCUGGAUGAGCUUGCAUAGUUAUUUAGUUA, the “pre-steady-state target cleavage rate” value is, setting by setting: under setting [1], 0.000968 ± 0.0054; under setting [2], 0.000679 ± 0.013.

Take UCCUGGUACAGCUUGCAUAGUUUUAAGUUA: the “pre-steady-state target cleavage rate” value is, setting by setting: under setting [1], 0.00117 ± 0.0067; under setting [2], 0.000851 ± 0.015.

With UCCUGGAUGAGGUUGCAAAGUAUUUAGUUA, the “pre-steady-state target cleavage rate” value came out at 0.00144 ± 0.0032 under setting [1] and 0.000638 ± 0.013 under setting [2].

On to UCCUGGUACAGGUUGCAUAGUAUUUAGUUA, for which the “pre-steady-state target cleavage rate” value came to 0.0211 ± 0.0053 under setting [1] and 0.000498 ± 0.018 under setting [2].

With UCCUGGAUCAGGUUGCAUUGUAUUUAGUUA, the “pre-steady-state target cleavage rate” value runs as follows: under setting [1], 0.00567 ± 0.0021; under setting [2], 0.000239 ± 0.034.

UCCUGGAUGAGCAUGCAUAGUAAUUAGUUA: the “pre-steady-state target cleavage rate” value was determined as 0.00173 ± 0.0034 under setting [1] and 0.0024 ± 0.006 under setting [2].

For the sequence UCCUGGAUCUGCUUGCAUAGUAUAUAGUUA, the “pre-steady-state target cleavage rate” value by setting is: under setting [1], 0.0643 ± 0.018; under setting [2], 0.011 ± 0.0069.

With UCCUGGAACAGCUAGCAUUGUAUUUAGUUA, the “pre-steady-state target cleavage rate” value runs as follows: under setting [1], 0.0018 ± 0.0038; under setting [2], 0.00035 ± 0.016.

In the case of UCCUGGAUGUCGAAGCUUAGUAAUUAGUUA, the “pre-steady-state target cleavage rate” value was 0.000875 ± 0.0078 under setting [1] and 0.000171 ± 0.045 under setting [2].

As for UCCUGGAUGAGCUAGCAAAGUAUUUAGUUA, the “pre-steady-state target cleavage rate” value stood at 0.00186 ± 0.002 under setting [1] and 0.000402 ± 0.012 under setting [2].

For the sequence UCCUGGUACAGCUUGCAUACUAUUUAGUUA, the “pre-steady-state target cleavage rate” value reads like this: under setting [1], 0.00275 ± 0.0031; under setting [2], 0.00025 ± 0.046.

For the sequence UCCUGCUACAGCUUGCAUAGUUUUUUGUUA, the “pre-steady-state target cleavage rate” value reads like this: under setting [1], 0.00384 ± 0.0021; under setting [2], 0.000761 ± 0.0096.

As for UCCUGGAUGUCCUUGCAUAGUAAUUUAGUUA, the “pre-steady-state target cleavage rate” value was 0.000281 ± 0.023 under setting [1] and 0.000276 ± 0.024 under setting [2].

As to UCCUGGAACAGCAUGCUUAGUAUUUAGUUA, the “pre-steady-state target cleavage rate” value worked out at 0.00591 ± 0.0025 under setting [1] and 0.0015 ± 0.0063 under setting [2].

Regarding UCCUGGAUCAGCAUGCAUAGUUUUUAGUUA, the “pre-steady-state target cleavage rate” value by setting is: under setting [1], 0.00291 ± 0.0027; under setting [2], 0.000347 ± 0.02.

In the case of UCCUGGAUGAGGUUGCAUAGUAUUUUGUUA, the “pre-steady-state target cleavage rate” value was found to be 0.00143 ± 0.0024 under setting [1] and 0.000748 ± 0.011 under setting [2].

Turning to UCCUGGUACAGCAUGCAUAGUAAUUAGUUA, the “pre-steady-state target cleavage rate” value runs as follows: under setting [1], 0.00882 ± 0.0034; under setting [2], 0.000425 ± 0.027.

For UCCUGGUACAGCUUGCAUAGCAUUUAGUUA, the “pre-steady-state target cleavage rate” value under setting [1] was determined as 0.00214 ± 0.0027 and the “pre-steady-state target cleavage rate” value under setting [2] was 0.000914 ± 0.0094.

On to UCCUGCUACAGCAUGGAUAGUAUUUAGUUA, for which the “pre-steady-state target cleavage rate” value by setting is: under setting [1], 0.00804 ± 0.0023; under setting [2], 0.000918 ± 0.0066.

Turning to UCCUGGAUGAGCUUGCAUAGUAUUUAGUAA, the “pre-steady-state target cleavage rate” value is, setting by setting: under setting [1], 0.00367 ± 0.0022; under setting [2], 0.00092 ± 0.01.

Consider UCCUGGAUGAGCUUGCAUAGUUUUUAGUUA, for which the “pre-steady-state target cleavage rate” value by setting is: under setting [1], 0.00485 ± 0.002; under setting [2], 0.00127 ± 0.0087.

Regarding UCCUGGAUGUGCUAGCAUAGUUUUUAGUUA, the “pre-steady-state target cleavage rate” value worked out at 0.000322 ± 0.021 under setting [1] and 0.000318 ± 0.033 under setting [2].

For UCCUGGUACAGCUUGCAUAGUAAAAAGUUA, the “pre-steady-state target cleavage rate” value turned out to be 0.00114 ± 0.0037 under setting [1] and 0.000801 ± 0.0079 under setting [2].

As to UCCUGGUACAGCUUGCAUAGUAUUUUCUAA, the “pre-steady-state target cleavage rate” value is, setting by setting: under setting [1], 0.0055 ± 0.0029; under setting [2], 0.00047 ± 0.034.

On to UCCUGGUACAGCGUUGCAUAGUAUUUAGUUA, for which the “pre-steady-state target cleavage rate” value was found to be 0.00749 ± 0.0028 under setting [1] and 0.000208 ± 0.066 under setting [2].

Take UCCUGCUAGAGGUUGCAUAGUAUUUAGUUA: the “pre-steady-state target cleavage rate” value runs as follows: under setting [1], 0.00977 ± 0.0027; under setting [2], 0.000765 ± 0.013.

For the sequence UCCUGGAUCAGCUUGCAGAGUAUUUAGUUA, the “pre-steady-state target cleavage rate” value runs as follows: under setting [1], 0.00715 ± 0.0022; under setting [2], 0.000394 ± 0.021.

Take UCCUGCUACAGCUAGCAUAGUAUAUAGUUA: the “pre-steady-state target cleavage rate” value runs as follows: under setting [1], 0.00485 ± 0.0017; under setting [2], 0.000514 ± 0.011.

Take UCCUGGUACAGCUAGCAUACUAUUUAGUUA: the “pre-steady-state target cleavage rate” value runs as follows: under setting [1], 0.00217 ± 0.0031; under setting [2], 0.000461 ± 0.021.

In the case of UCCUGGAACAGCUUGCAUAGUUUUUAGAAA, the “pre-steady-state target cleavage rate” value turned out to be 0.00413 ± 0.0021 under setting [1] and 0.000435 ± 0.014 under setting [2].

With UCCUCCUACACCUAGCAUAGUAUUUAGUUA, the “pre-steady-state target cleavage rate” value under setting [1] amounted to 0.00718 ± 0.0027 and the “pre-steady-state target cleavage rate” value under setting [2] was determined as 0.00055 ± 0.0091.

Turning to UCCUCCUACAGCUUGCAUAGUCAUUUAGUUA, the “pre-steady-state target cleavage rate” value is 0.00268 ± 0.0025 under setting [1] and 0.000788 ± 0.0082 under setting [2].

Regarding UCCUGGAUGUCGAACGUAUCUGAUUUAGUUA, the “pre-steady-state target cleavage rate” value is, setting by setting: under setting [1], 0.000401 ± 0.013; under setting [2], below 0.0001.

For the sequence UCCUGGUACAGCUUGCAUAGUAUCUAGUUA, the “pre-steady-state target cleavage rate” value under setting [1] was found to be 0.004 ± 0.0021 and the “pre-steady-state target cleavage rate” value under setting [2] stood at 0.00053 ± 0.016.

On to UCCUGGAUGUGCUUGCAAAGUAUUUACUUA, for which the “pre-steady-state target cleavage rate” value under setting [1] stood at 0.00111 ± 0.005 and the “pre-steady-state target cleavage rate” value under setting [2] amounted to 0.00115 ± 0.0079.

As for UCCUGGAUGUCGAAGCAUAGUAUAUAGUAA, the “pre-steady-state target cleavage rate” value under setting [1] stood at 0.000351 ± 0.0094 and the “pre-steady-state target cleavage rate” value under setting [2] was 0.000195 ± 0.04.

As to UCCUGGAUCAGCUUGCAUUGUAAUUAGUUA, the “pre-steady-state target cleavage rate” value was found to be 0.00179 ± 0.0017 under setting [1] and 0.000427 ± 0.017 under setting [2].

As for UCCUGCUACAGCUUGCAUAGUAUUUGAGUUA, the “pre-steady-state target cleavage rate” value reads like this: under setting [1], 0.0068 ± 0.0022; under setting [2], 0.00121 ± 0.0065.

Regarding UCCUGGAUGUGCUUGCAUAGUACUUUAGUUA, the “pre-steady-state target cleavage rate” value under setting [1] was 0.0126 ± 0.0061 and the “pre-steady-state target cleavage rate” value under setting [2] was determined as 0.001 ± 0.012.

For the sequence UCCUGGAUGAGCUUGCUUAGUAUAUAGUUA, the “pre-steady-state target cleavage rate” value came to 0.00154 ± 0.0044 under setting [1] and 0.000988 ± 0.0099 under setting [2].

In the case of UCCUGGUAGAGCUUGCAUAGUAUUAAGUUA, the “pre-steady-state target cleavage rate” value turned out to be 0.00385 ± 0.0022 under setting [1] and 0.0012 ± 0.0099 under setting [2].

Regarding UCCUGGUACAGCUAGCAAAGUAUUUAGUUA, the “pre-steady-state target cleavage rate” value runs as follows: under setting [1], 0.00688 ± 0.0029; under setting [2], 0.000822 ± 0.013.

UCCUGGUACAGCUUGCAUAGAAUUAAGUUA: the “pre-steady-state target cleavage rate” value by setting is: under setting [1], 0.00454 ± 0.0027; under setting [2], 0.000564 ± 0.012.

Consider UCCUGGAUGAGCUUGCAUAGUAUAAUGUUA, for which the “pre-steady-state target cleavage rate” value came out at 0.00166 ± 0.0029 under setting [1] and 0.000596 ± 0.016 under setting [2].

Consider UCCUGGUACAGCUUGCAUAGUAUUUAUGUUA, for which the “pre-steady-state target cleavage rate” value under setting [1] came out at 0.00329 ± 0.0024 and the “pre-steady-state target cleavage rate” value under setting [2] was 0.000967 ± 0.014.

On to UCCUGGAUGUGCUUGCUUAGAAUUUAGUUA, for which the “pre-steady-state target cleavage rate” value was found to be 0.000414 ± 0.0092 under setting [1] and 0.000129 ± 0.075 under setting [2].

Regarding UCCUGGAUGAAGCUUGCAUAGUAUUUAGUUA, the “pre-steady-state target cleavage rate” value is, setting by setting: under setting [1], 0.0366 ± 0.0082; under setting [2], 0.0015 ± 0.0074.

With UCCUGGAUGAGCUUGCAUAGUGUUUAGUUA, the “pre-steady-state target cleavage rate” value is, setting by setting: under setting [1], 0.00987 ± 0.0028; under setting [2], 0.000872 ± 0.015.

As for UCCUGGAUCAGCUUGCAUUGUAUUUAGUUA, the “pre-steady-state target cleavage rate” value runs as follows: under setting [1], 0.0179 ± 0.0038; under setting [2], 0.00127 ± 0.0078.

Regarding UCCUGGUUCAGCUUGCAUAGAAUUUAGUUA, the “pre-steady-state target cleavage rate” value was 0.00201 ± 0.0026 under setting [1] and 0.00126 ± 0.0071 under setting [2].

As for UCCUCCUACAGCUUCCAUUGUAUUUAGUUA, the “pre-steady-state target cleavage rate” value under setting [1] was 0.00393 ± 0.0019 and the “pre-steady-state target cleavage rate” value under setting [2] is 0.000524 ± 0.0091.

Regarding UCCUGGAUCUGCUUGCAUACUAUUUAGUUA, the “pre-steady-state target cleavage rate” value reads like this: under setting [1], 0.00859 ± 0.0023; under setting [2], 0.00235 ± 0.0052.

Consider UCCUGGAUGACGUUGCAUAGUAUUUAGUUA, for which the “pre-steady-state target cleavage rate” value by setting is: under setting [1], 0.00512 ± 0.0026; under setting [2], 0.000403 ± 0.038.

For the sequence UCCUGGAUGUGCAUGCAUAGUAUUUUGUUA, the “pre-steady-state target cleavage rate” value under setting [1] is 0.000688 ± 0.0088 and the “pre-steady-state target cleavage rate” value under setting [2] was 0.000756 ± 0.011.
